Data as given in paper PMC9776037.
These are yes or no findings as the source states them, for the method shown. In cells and extracts the contact can be indirect. Some binding calls cover weakened binding; strength is not graded here.

The chains behind the UniProt entries cited, without tags or fusion partners. Where a name states a change or a piece, a line headed by the entry shows the natural chain unless it says otherwise. Residues count along the entry.
UniProt Q05793, residues 22-3707: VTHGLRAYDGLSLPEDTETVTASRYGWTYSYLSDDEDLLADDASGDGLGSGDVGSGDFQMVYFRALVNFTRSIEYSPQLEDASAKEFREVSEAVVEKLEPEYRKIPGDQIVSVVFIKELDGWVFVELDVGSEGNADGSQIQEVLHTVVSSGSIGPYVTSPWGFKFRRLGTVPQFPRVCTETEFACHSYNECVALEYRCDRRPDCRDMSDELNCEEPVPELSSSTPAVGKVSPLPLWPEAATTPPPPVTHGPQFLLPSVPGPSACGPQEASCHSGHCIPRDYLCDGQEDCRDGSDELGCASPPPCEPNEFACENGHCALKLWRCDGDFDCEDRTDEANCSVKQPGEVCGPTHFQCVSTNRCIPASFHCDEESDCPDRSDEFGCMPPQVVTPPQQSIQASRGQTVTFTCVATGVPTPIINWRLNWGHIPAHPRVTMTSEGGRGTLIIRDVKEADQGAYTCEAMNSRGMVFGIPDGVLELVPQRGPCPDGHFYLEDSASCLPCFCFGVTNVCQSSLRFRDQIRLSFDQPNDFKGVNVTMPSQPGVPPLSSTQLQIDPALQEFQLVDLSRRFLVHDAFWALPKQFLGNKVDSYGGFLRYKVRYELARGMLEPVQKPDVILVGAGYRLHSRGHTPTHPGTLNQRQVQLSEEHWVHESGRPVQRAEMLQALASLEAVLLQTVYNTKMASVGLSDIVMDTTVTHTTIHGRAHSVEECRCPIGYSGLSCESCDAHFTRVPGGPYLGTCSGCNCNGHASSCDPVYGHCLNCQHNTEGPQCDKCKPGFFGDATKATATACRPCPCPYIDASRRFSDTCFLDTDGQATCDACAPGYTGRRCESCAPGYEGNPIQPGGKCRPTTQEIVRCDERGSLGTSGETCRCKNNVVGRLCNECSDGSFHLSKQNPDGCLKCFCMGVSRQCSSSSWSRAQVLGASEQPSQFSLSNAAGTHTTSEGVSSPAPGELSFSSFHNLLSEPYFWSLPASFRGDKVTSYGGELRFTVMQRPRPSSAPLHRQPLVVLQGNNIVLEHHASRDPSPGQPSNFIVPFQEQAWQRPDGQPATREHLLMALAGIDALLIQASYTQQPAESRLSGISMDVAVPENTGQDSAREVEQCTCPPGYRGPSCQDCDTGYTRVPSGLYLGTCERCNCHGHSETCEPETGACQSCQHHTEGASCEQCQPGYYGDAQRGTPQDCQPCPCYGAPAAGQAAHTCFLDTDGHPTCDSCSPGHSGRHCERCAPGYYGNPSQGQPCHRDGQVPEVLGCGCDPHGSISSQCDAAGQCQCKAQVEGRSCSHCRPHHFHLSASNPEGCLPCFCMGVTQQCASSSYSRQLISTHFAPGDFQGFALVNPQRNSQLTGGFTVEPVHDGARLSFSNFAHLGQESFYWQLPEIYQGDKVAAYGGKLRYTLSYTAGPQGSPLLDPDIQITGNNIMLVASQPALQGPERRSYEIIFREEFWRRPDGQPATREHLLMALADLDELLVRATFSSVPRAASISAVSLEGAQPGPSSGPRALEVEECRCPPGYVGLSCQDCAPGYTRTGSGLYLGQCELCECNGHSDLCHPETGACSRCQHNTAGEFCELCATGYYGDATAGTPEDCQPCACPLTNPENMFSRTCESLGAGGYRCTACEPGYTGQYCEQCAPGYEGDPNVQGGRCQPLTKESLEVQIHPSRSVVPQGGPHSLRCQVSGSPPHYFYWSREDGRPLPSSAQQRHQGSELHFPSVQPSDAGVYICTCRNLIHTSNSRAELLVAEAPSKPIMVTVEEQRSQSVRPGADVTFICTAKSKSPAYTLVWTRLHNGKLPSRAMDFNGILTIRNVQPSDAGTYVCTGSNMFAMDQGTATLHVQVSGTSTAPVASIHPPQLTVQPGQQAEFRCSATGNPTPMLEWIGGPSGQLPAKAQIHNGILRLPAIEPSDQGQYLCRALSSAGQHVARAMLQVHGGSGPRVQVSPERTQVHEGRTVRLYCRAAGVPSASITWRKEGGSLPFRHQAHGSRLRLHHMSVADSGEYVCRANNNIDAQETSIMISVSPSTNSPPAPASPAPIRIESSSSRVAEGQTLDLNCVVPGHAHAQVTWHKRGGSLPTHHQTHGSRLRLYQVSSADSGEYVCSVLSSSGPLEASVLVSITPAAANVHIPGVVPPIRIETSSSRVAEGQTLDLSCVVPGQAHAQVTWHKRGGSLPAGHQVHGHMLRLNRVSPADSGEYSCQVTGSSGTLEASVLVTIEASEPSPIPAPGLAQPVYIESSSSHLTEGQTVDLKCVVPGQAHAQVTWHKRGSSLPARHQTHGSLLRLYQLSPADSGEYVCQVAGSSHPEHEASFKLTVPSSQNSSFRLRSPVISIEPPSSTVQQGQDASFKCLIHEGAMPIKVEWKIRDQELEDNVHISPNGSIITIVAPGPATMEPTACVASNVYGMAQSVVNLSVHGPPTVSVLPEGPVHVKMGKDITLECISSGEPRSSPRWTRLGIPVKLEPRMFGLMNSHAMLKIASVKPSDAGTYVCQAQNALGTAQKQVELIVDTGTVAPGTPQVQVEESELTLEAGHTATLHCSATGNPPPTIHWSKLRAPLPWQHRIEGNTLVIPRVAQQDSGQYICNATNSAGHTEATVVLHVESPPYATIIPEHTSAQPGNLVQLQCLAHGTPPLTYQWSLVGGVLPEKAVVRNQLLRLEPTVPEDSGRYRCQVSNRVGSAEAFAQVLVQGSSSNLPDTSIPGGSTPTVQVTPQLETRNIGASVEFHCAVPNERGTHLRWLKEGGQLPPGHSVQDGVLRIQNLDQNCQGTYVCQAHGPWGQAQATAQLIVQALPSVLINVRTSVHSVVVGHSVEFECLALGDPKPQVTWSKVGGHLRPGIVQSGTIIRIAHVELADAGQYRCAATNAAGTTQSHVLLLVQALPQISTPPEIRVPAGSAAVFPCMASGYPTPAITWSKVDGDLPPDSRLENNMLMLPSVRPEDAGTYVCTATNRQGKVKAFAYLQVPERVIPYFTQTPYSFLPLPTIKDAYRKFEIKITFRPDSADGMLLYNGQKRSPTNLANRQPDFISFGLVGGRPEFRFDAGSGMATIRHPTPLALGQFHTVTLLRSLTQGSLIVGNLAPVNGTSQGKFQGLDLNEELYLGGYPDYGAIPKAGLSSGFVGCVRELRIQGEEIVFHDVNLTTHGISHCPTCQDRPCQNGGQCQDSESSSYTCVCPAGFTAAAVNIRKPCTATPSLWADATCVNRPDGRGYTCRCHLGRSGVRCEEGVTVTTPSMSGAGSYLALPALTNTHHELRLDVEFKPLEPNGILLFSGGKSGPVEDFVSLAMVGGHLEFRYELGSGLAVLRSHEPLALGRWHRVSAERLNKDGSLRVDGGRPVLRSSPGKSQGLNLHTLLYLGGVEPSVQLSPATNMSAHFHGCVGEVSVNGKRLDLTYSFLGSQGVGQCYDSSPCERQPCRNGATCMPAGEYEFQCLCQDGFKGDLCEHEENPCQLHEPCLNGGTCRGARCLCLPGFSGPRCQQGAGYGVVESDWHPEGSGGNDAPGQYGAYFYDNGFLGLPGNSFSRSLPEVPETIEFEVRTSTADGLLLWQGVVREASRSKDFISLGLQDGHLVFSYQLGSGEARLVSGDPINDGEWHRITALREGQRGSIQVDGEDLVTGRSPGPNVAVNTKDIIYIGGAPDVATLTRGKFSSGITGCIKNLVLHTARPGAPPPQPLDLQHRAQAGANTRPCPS
UniProt O08532, residues 25-1103: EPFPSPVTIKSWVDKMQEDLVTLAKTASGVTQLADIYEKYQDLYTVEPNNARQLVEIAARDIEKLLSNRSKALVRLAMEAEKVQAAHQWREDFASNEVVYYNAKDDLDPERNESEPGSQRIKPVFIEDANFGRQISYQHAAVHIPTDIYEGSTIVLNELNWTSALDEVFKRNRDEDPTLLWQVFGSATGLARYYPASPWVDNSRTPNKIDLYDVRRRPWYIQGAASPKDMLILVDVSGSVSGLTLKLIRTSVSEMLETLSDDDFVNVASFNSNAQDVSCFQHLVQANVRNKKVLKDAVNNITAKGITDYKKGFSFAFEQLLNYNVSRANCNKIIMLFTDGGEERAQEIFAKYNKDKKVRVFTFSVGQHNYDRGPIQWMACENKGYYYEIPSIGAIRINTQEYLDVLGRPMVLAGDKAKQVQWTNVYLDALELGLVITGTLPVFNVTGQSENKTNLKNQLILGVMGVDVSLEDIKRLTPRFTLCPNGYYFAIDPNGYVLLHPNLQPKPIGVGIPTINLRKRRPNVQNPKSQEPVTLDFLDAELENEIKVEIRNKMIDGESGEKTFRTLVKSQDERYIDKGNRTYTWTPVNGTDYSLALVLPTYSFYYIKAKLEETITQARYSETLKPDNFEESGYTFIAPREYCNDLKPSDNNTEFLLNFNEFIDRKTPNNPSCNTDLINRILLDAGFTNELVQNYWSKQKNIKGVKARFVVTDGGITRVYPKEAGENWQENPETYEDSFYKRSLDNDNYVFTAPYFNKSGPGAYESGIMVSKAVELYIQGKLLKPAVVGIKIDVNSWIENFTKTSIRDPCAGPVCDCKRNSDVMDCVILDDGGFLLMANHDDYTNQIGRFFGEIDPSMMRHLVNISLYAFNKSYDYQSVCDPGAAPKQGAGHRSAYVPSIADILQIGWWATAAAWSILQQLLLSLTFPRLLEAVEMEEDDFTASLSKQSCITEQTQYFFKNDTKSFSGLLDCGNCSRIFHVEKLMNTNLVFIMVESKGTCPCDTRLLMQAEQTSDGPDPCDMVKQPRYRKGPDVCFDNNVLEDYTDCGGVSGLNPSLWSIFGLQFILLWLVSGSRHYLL

Biological target: Perlecan (PLN), endogenous in MLO-Y4 cells (mouse (endogenous in MLO-Y4)) (UniProt Q05793)
Experiment: co-IP; MLO-Y4 lysates in RIPA buffer; Dynabeads with monoclonal anti-PLN A7L6 antibody or rat IgG, 45 min at RT; blots probed with anti-α2δ1A and anti-PLN A7L6

## α2δ1 subunit of voltage-sensitive calcium channels, endogenous in MLO-Y4 cells (from UniProt O08532 25-1103)
  binding: binds
